This is an account of results in PMC11266678.

Chains of the proteins cited; added tags and fusions are not shown.
UniProt Q9NS91: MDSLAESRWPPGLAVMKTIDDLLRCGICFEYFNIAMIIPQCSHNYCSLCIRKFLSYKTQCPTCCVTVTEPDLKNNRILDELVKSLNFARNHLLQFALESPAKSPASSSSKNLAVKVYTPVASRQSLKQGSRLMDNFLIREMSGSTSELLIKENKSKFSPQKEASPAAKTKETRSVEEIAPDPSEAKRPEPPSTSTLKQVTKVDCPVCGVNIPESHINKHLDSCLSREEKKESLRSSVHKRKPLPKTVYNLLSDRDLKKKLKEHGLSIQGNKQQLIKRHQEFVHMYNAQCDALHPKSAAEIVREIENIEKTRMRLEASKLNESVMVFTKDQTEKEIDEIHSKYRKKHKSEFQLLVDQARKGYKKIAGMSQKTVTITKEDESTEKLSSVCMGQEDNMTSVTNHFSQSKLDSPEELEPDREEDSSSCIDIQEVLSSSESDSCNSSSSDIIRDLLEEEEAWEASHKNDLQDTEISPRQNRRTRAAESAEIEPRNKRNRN

Changes are numbered by the printed parent chain. Numbers in names are those of the source. These are yes or no findings as the source states them, for the method shown. In cells and extracts the contact can be indirect. Some binding calls cover weakened binding; strength is not graded here.

Sequences and labels used below:
B1: PARP10 (mono-ADP-ribosyltransferase), endogenous (protein, UniProt Q53GL7 1-1025)
chain: MVAMAEAEAGVAVEVRGLPPAVPDELLTLYFENRRRSGGGPVLSWQRLGCGGVLTFREPADAERVLAQADHELHGAQLSLRPAPPRAPARLLLQGLPPGTTPQRLEQHVQALLRASGLPVQPCCALASPRPDRALVQLPKPLSEADVRVLEEQAQNLGLEGTLVSLARVPQARAVRVVGDGASVDLLLLELYLENERRSGGGPLEDLQRLPGPLGTVASFQQWQVAERVLQQEHRLQGSELSLVPHYDILEPEELAENTSGGDHPSTQGPRATKHALLRTGGLVTALQGAGTVTMGSGEEPGQSGASLRTGPMVQGRGIMTTGSGQEPGQSGTSLRTGPMGSLGQAEQVSSMPMGSLEHEGLVSLRPVGLQEQEGPMSLGPVGSAGPVETSKGLLGQEGLVEIAMDSPEQEGLVGPMEITMGSLEKAGPVSPGCVKLAGQEGLVEMVLLMEPGAMRFLQLYHEDLLAGLGDVALLPLEGPDMTGFRLCGAQASCQAAEEFLRSLLGSISCHVLCLEHPGSARFLLGPEGQHLLQGLEAQFQCVFGTERLATATLDTGLEEVDPTEALPVLPGNAHTLWTPDSTGGDQEDVSLEEVRELLATLEGLDLDGEDWLPRELEEEGPQEQPEEEVTPGHEEEEPVAPSTVAPRWLEEEAALQLALHRSLEPQGQVAEQEEAAALRQALTLSLLEQPPLEAEEPPDGGTDGKAQLVVHSAFEQDVEELDRALRAALEVHVQEETVGPWRRTLPAELRARLERCHGVSVALRGDCTILRGFGAHPARAARHLVALLAGPWDQSLAFPLAASGPTLAGQTLKGPWNNLERLAENTGEFQEVVRAFYDTLDAARSSIRVVRVERVSHPLLQQQYELYRERLLQRCERRPVEQVLYHGTTAPAVPDICAHGFNRSFCGRNATVYGKGVYFARRASLSVQDRYSPPNADGHKAVFVARVLTGDYGQGRRGLRAPPLRGPGHVLLRYDSAVDCICQPSIFVIFHDTQALPTHLITCEHVPRASPDDPSGLPGRSPDT
B2: PARP10 G888W catalytic site mutant, exogenously re-expressed in PARP10-knockout HeLa cells (protein, UniProt Q53GL7 1-1025)
chain: B1 chain with G888W
B3: PARP10 wildtype, exogenously re-expressed in PARP10-knockout HeLa cells (protein, UniProt Q53GL7 1-1025)
chain: B1 chain
B4: PARP10 ΔPIP (V834A, F837A, Y838A triple mutant), exogenously re-expressed in PARP10-knockout HeLa cells (protein, UniProt Q53GL7 1-1025)
chain: B1 chain with V834A, F837A, Y838A

The first experiment addresses RAD18 (E3 ubiquitin ligase), endogenous (human (endogenous in HeLa)) (UniProt Q9NS91). Nature of the experiment: co-IP; anti-RAD18 antibody (control rabbit IgG) with Protein A/G agarose from HeLa extracts in HEPES lysis buffer (50 mM HEPES, 150 mM NaCl, 1 mM EDTA, 1% TritonX-100, 10% glycerol), 4 °C; blot for PARP10; wildtype cells untreated or treated with 0.4 mM HU or 150 µM cisplatin; PARP10-knockout cells re-expressing PARP10 variants.
As to B1, the binding result was “binds”.
Same read-out and setting: for B2 the value was “binds”; for B3, “binds”.
As to B4, the binding entry is “binds”.

The next experiment has the same target. Nature of the experiment: proximity ligation; Duolink PLA with PARP10 and RAD18 antibodies on permeabilised, fixed HeLa cells; untreated or 0.4 mM HU for 3 hrs; wildtype cells and PARP10-knockout cells re-expressing PARP10 variants; knockdown of PARP10 or RAD18 as control of specificity.
For the molecule B1, the binding result is “binds”.
With B2, the binding entry was “binds”.
On to B3, for which the binding entry is reported as “binds”.
The same measure, in the same setting: for B4 the value was “binds”.
